# Assay results taken from the supplement of paper PMC8728848.
# This is one part of the list.
# B1: CD23 (Homo sapiens) (protein)
# chain: MELQVSSGFVCNTCPEKWINFQRKCYYFGKGTKQWVHARYACDDMEGQLVSIHSPEEQDFLTKHASHTGSWIGLRNLDLKGEFIWVDGSHVDYSNWAPGEPTSRSQGEDCVMMRGSGRWNDAFCDRKLGAWVCDRLATCTPPASEGSAESMGPDSRPDPDGRLPTPSAPLHS
# Assays:
# Assay in all cases: glycan array binding signal (z-score within array); higher = stronger binding
# Conditions in all cases: glycan notation: IUPAC condensed, linker removed
# [1] = molecular target: Fuc(a1-2)Gal
# In short: (§1)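 Glycan array binding is given as a within-array Z-score, which can be read as non-binding when negative. The arrays, 3228 of them, came from the Consortium for Functional Glycomics database and were retained only where the protein sequence was available. Z-scores were averaged across arrays of the same protein sequence at different concentrations or buffers and across linkers.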
# [2] = molecular target: Fuc(a1-2)Gal(b1-3)GalNAc
# In short: as §1
# [3] = molecular target: Fuc(a1-2)Gal(b1-3)GalNAc(b1-3)Gal
# In short: as §1
# [4] = molecular target: Fuc(a1-2)Gal(b1-3)GalNAc(b1-3)Gal(a1-4)Gal(b1-4)Glc
# In short: as §1
# [5] = molecular target: Fuc(a1-2)Gal(b1-3)GalNAc(b1-4)[Neu5Ac(a2-3)]Gal(b1-4)Glc
# In short: as §1
# [6] = molecular target: Fuc(a1-2)Gal(b1-3)GlcNAc
# In short: as §1
# [7] = molecular target: Fuc(a1-2)Gal(b1-3)GlcNAc(b1-3)Gal(b1-4)Glc
# In short: as §1
# [8] = molecular target: Fuc(a1-2)Gal(b1-3)[Fuc(a1-4)]GlcNAc
# In short: as §1
# [9] = molecular target: Fuc(a1-2)Gal(b1-4)Glc
# In short: as §1
# [10] = molecular target: Fuc(a1-2)Gal(b1-4)Glc6S
# In short: as §1
# [11] = molecular target: Fuc(a1-2)Gal(b1-4)GlcNAc
# In short: as §1
# [12] = molecular target: Fuc(a1-2)Gal(b1-4)GlcNAc(b1-3)Gal(b1-4)GlcNAc
# In short: as §1
# [13] = molecular target: Fuc(a1-2)Gal(b1-4)GlcNAc(b1-3)Gal(b1-4)GlcNAc(b1-3)Gal(b1-4)GlcNAc
# In short: as §1
# [14] = molecular target: Fuc(a1-2)Gal(b1-4)GlcNAc6S
# In short: as §1
# [15] = molecular target: Fuc(a1-2)Gal(b1-4)[Fuc(a1-3)]GlcNAc
# In short: as §1
# [16] = molecular target: Fuc(a1-2)Gal(b1-4)[Fuc(a1-3)]GlcNAc(b1-3)Gal(b1-4)[Fuc(a1-3)]GlcNAc
# In short: as §1
# [17] = molecular target: Fuc(a1-2)Gal(b1-4)[Fuc(a1-3)]GlcNAc(b1-3)Gal(b1-4)[Fuc(a1-3)]GlcNAc(b1-3)Gal(b1-4)[Fuc(a1-3)]GlcNAc
# In short: as §1
# [18] = molecular target: Fuc(a1-2)Gal6S(b1-4)Glc
# In short: as §1
# [19] = molecular target: Fuc(a1-2)Gal6S(b1-4)Glc6S
# In short: as §1
# [20] = molecular target: Fuc(a1-2)Gal6S(b1-4)GlcNAc
# In short: as §1
# [21] = molecular target: Fuc(a1-2)[Gal(a1-3)]Gal
# In short: as §1
# [22] = molecular target: Fuc(a1-2)[Gal(a1-3)]Gal(b1-3)GlcNAc
# In short: as §1
# [23] = molecular target: Fuc(a1-2)[Gal(a1-3)]Gal(b1-4)Glc
# In short: as §1
# [24] = molecular target: Fuc(a1-2)[Gal(a1-3)]Gal(b1-4)GlcNAc
# In short: as §1
# [25] = molecular target: Fuc(a1-2)[Gal(a1-3)]Gal(b1-4)[Fuc(a1-3)]GlcNAc
# In short: as §1
# [26] = molecular target: Fuc(a1-2)[Gal(a1-4)]Gal(b1-4)GlcNAc
# In short: as §1
# [27] = molecular target: Fuc(a1-2)[GalNAc(a1-3)]Gal
# In short: as §1
# [28] = molecular target: Fuc(a1-2)[GalNAc(a1-3)]Gal(b1-3)GlcNAc
# In short: as §1
# [29] = molecular target: Fuc(a1-2)[GalNAc(a1-3)]Gal(b1-4)Glc
# In short: as §1
# [30] = molecular target: Fuc(a1-2)[GalNAc(a1-3)]Gal(b1-4)GlcNAc
# In short: as §1
# [31] = molecular target: Fuc(a1-2)[GalNAc(a1-3)]Gal(b1-4)[Fuc(a1-3)]GlcNAc
# In short: as §1
# [32] = molecular target: Fuc(a1-2)[GalNAc(a1-4)]Gal(b1-4)GlcNAc
# In short: as §1
# [33] = molecular target: Fuc(a1-2)[GalNAc(b1-3)]Gal
# In short: as §1
# [34] = molecular target: Fuc(a1-3)GlcNAc
# In short: as §1
# [35] = molecular target: Fuc(a1-3)[Gal(b1-4)]Glc6S
# In short: as §1
# [36] = molecular target: Fuc(a1-3)[Gal(b1-4)]GlcNAc
# In short: as §1
# [37] = molecular target: Fuc(a1-3)[Gal(b1-4)]GlcNAc(b1-3)Gal(b1-3)[Fuc(a1-4)]GlcNAc
# In short: as §1
# [38] = molecular target: Fuc(a1-3)[Gal(b1-4)]GlcNAc(b1-4)Gal(b1-4)[Fuc(a1-3)]GlcNAc
# In short: as §1
# [39] = molecular target: Fuc(a1-3)[Gal(b1-4)]GlcNAc(b1-4)Gal(b1-4)[Fuc(a1-3)]GlcNAc(b1-4)Gal(b1-4)[Fuc(a1-3)]GlcNAc
# In short: as §1
# [40] = molecular target: Fuc(a1-3)[Gal(b1-4)]GlcNAc6S
# In short: as §1
# [41] = molecular target: Fuc(a1-3)[Gal3S(b1-4)]Glc6S
# In short: as §1
# [42] = molecular target: Fuc(a1-3)[Gal3S(b1-4)]GlcNAc
# In short: as §1
# [43] = molecular target: Fuc(a1-3)[Gal3S(b1-4)]GlcNAc6S
# In short: as §1
# [44] = molecular target: Fuc(a1-3)[GalNAc(b1-4)]GlcNAc
# In short: as §1
# [45] = molecular target: Fuc(a1-4)GlcNAc
# In short: as §1
# [46] = molecular target: Fuc(b1-3)GlcNAc
# In short: as §1
# [47] = molecular target: Gal(a1-2)Gal
# In short: as §1
# [48] = molecular target: Gal(a1-3)Gal
# In short: as §1
# [49] = molecular target: Gal(a1-3)Gal(b1-3)GlcNAc
# In short: as §1
# [50] = molecular target: Gal(a1-3)Gal(b1-4)Glc
# In short: as §1
# [51] = molecular target: Gal(a1-3)Gal(b1-4)GlcNAc
# In short: as §1
# [52] = molecular target: Gal(a1-3)Gal(b1-4)[Fuc(a1-3)]GlcNAc
# In short: as §1
# [53] = molecular target: Gal(a1-3)GalNAc
# In short: as §1
# [54] = molecular target: Gal(a1-3)[Gal(a1-4)]Gal(b1-4)GlcNAc
# In short: as §1
# [55] = molecular target: Gal(a1-4)Gal(b1-4)Glc
# In short: as §1
# [56] = molecular target: Gal(a1-4)Gal(b1-4)GlcNAc
# In short: as §1
# [57] = molecular target: Gal(a1-4)GlcNAc
# In short: as §1
# [58] = molecular target: Gal(a1-6)Glc
# In short: as §1
# [59] = molecular target: Gal(b1-2)Gal
# In short: as §1
# [60] = molecular target: Gal(b1-3)Gal
# In short: as §1
# [61] = molecular target: Gal(b1-3)GalNAc
# In short: as §1
# [62] = molecular target: Gal(b1-3)GalNAc(b1-3)Gal(a1-4)Gal(b1-4)Glc
# In short: as §1
# [63] = molecular target: Gal(b1-3)GalNAc(b1-4)Gal(b1-4)Glc
# In short: as §1
# [64] = molecular target: Gal(b1-3)GalNAc(b1-4)[Neu5Ac(a2-3)]Gal(b1-4)Glc
# In short: as §1
# [65] = molecular target: Gal(b1-3)GlcNAc
# In short: as §1
# [66] = molecular target: Gal(b1-3)GlcNAc(b1-3)Gal(b1-3)GlcNAc
# In short: as §1
# [67] = molecular target: Gal(b1-3)GlcNAc(b1-3)Gal(b1-4)Glc
# In short: as §1
# [68] = molecular target: Gal(b1-3)GlcNAc(b1-3)Gal(b1-4)GlcNAc
# In short: as §1
# [69] = molecular target: Gal(b1-3)[Fuc(a1-4)]GlcNAc
# In short: as §1
# [70] = molecular target: Gal(b1-3)[Fuc(a1-4)]GlcNAc(b1-3)Gal(b1-3)[Fuc(a1-4)]GlcNAc
# In short: as §1
# [71] = molecular target: Gal(b1-3)[Fuc(a1-4)]GlcNAc(b1-3)Gal(b1-4)GlcNAc
# In short: as §1
# [72] = molecular target: Gal(b1-3)[Fuc(a1-4)]GlcNAc(b1-3)Gal(b1-4)[Fuc(a1-3)]GlcNAc
# In short: as §1
# [73] = molecular target: Gal(b1-3)[GlcNAc(b1-6)]GalNAc
# In short: as §1
# [74] = molecular target: Gal(b1-3)[Neu5Ac(a2-6)]GalNAc
# In short: as §1
# [75] = molecular target: Gal(b1-3)[Neu5Ac(a2-6)]GlcNAc(b1-6)Gal(b1-4)Glc
# In short: as §1
binder,measurement,setting,value
B1,glycan array binding signal (z-score),[1],0.118
same,glycan array binding signal (z-score),[2],0.063
same,glycan array binding signal (z-score),[3],0.068
same,glycan array binding signal (z-score),[4],-0.405
same,glycan array binding signal (z-score),[5],-0.334
same,glycan array binding signal (z-score),[6],-0.127
same,glycan array binding signal (z-score),[7],-0.327
same,glycan array binding signal (z-score),[8],-0.319
same,glycan array binding signal (z-score),[9],-0.335
same,glycan array binding signal (z-score),[10],0.075
same,glycan array binding signal (z-score),[11],0.033
same,glycan array binding signal (z-score),[12],-0.653
same,glycan array binding signal (z-score),[13],-0.077
same,glycan array binding signal (z-score),[14],-0.186
same,glycan array binding signal (z-score),[15],0.228
same,glycan array binding signal (z-score),[16],0.422
same,glycan array binding signal (z-score),[17],0.748
same,glycan array binding signal (z-score),[18],0.184
same,glycan array binding signal (z-score),[19],-0.617
same,glycan array binding signal (z-score),[20],-0.017
same,glycan array binding signal (z-score),[21],-0.374
same,glycan array binding signal (z-score),[22],-0.086
same,glycan array binding signal (z-score),[23],-0.458
same,glycan array binding signal (z-score),[24],0.175
same,glycan array binding signal (z-score),[25],0.988
same,glycan array binding signal (z-score),[26],-0.123
same,glycan array binding signal (z-score),[27],-0.099
same,glycan array binding signal (z-score),[28],0.445
same,glycan array binding signal (z-score),[29],-0.582
same,glycan array binding signal (z-score),[30],0.066
same,glycan array binding signal (z-score),[31],0.752
same,glycan array binding signal (z-score),[32],-0.016
same,glycan array binding signal (z-score),[33],-0.2
same,glycan array binding signal (z-score),[34],-0.219
same,glycan array binding signal (z-score),[35],-0.338
same,glycan array binding signal (z-score),[36],-0.062
same,glycan array binding signal (z-score),[37],0.5
same,glycan array binding signal (z-score),[38],0.351
same,glycan array binding signal (z-score),[39],-0.356
same,glycan array binding signal (z-score),[40],0.387
same,glycan array binding signal (z-score),[41],2.25
same,glycan array binding signal (z-score),[42],-0.269
same,glycan array binding signal (z-score),[43],0.491
same,glycan array binding signal (z-score),[44],-0.133
same,glycan array binding signal (z-score),[45],-0.822
same,glycan array binding signal (z-score),[46],-0.265
same,glycan array binding signal (z-score),[47],-0.046
same,glycan array binding signal (z-score),[48],0.248
same,glycan array binding signal (z-score),[49],-0.173
same,glycan array binding signal (z-score),[50],0.401
same,glycan array binding signal (z-score),[51],0.334
same,glycan array binding signal (z-score),[52],0.748
same,glycan array binding signal (z-score),[53],-0.248
same,glycan array binding signal (z-score),[54],0.074
same,glycan array binding signal (z-score),[55],0.283
same,glycan array binding signal (z-score),[56],0.223
same,glycan array binding signal (z-score),[57],-0.066
same,glycan array binding signal (z-score),[58],0.204
same,glycan array binding signal (z-score),[59],-0.283
same,glycan array binding signal (z-score),[60],-0.614
same,glycan array binding signal (z-score),[61],-0.398
same,glycan array binding signal (z-score),[62],-0.549
same,glycan array binding signal (z-score),[63],-0.307
same,glycan array binding signal (z-score),[64],-0.259
same,glycan array binding signal (z-score),[65],-0.084
same,glycan array binding signal (z-score),[66],-0.335
same,glycan array binding signal (z-score),[67],-0.654
same,glycan array binding signal (z-score),[68],-0.512
same,glycan array binding signal (z-score),[69],-0.095
same,glycan array binding signal (z-score),[70],0.311
same,glycan array binding signal (z-score),[71],-0.479
same,glycan array binding signal (z-score),[72],-0.3
same,glycan array binding signal (z-score),[73],-0.163
same,glycan array binding signal (z-score),[74],-0.376
same,glycan array binding signal (z-score),[75],-0.382

# Six entries picked at random from those above:
binder,measurement,setting,value
B1,glycan array binding signal (z-score),[48],0.248
same,glycan array binding signal (z-score),[13],-0.077
same,glycan array binding signal (z-score),[11],0.033
same,glycan array binding signal (z-score),[59],-0.283
same,glycan array binding signal (z-score),[10],0.075
same,glycan array binding signal (z-score),[73],-0.163
